PubChem BioAssay AID1159584, Peter MacCallum Cancer Centre, 2016
This is an unselected part of about 18,000 reagents. Reagent sequences are not shown. The record does not give: the amount of reagent, the time to read-out.

- Test: 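Genes that CDH1-null MCF10A cells selectively depend on to survive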 (primary screen)
- Cells: human MCF10A breast epithelial cells, parental and CDH1-null
- Reagents: siRNA against human genes
- Read-out: 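Cell viability by CellTiter-Glo ATP luminescence, each line scaled to the mean of mock wells across plates, then CDH1-null over parental ratio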
- Reading the numbers: CDH1-null / parental viability ratio: higher = CDH1-null cells survive relatively better than parental; CDH1-null viability vs mock: higher = more viable CDH1-null cells; parental viability vs mock: higher = more viable parental cells

| gene | CDH1-null / parental viability ratio | CDH1-null viability vs mock (fraction of mock) | parental viability vs mock (fraction of mock) |
| --- | --- | --- | --- |
| SLC17A3 | 1.19 | 0.74 | 0.62 |
| HOXC9 | 0.97 | 1.03 | 1.06 |
| TNPO3 | 1.5 | 0.78 | 0.52 |
| ELF2 | 1.01 | 0.96 | 0.95 |
| IL6R | 1.01 | 0.9 | 0.89 |
| PIGB | 1.1 | 0.9 | 0.82 |
| FCRL2 | 0.68 | 0.52 | 0.76 |
| BASP1 | 0.95 | 0.58 | 0.61 |
| TIMP3 | 0.86 | 0.76 | 0.88 |
| FGD3 | 1.45 | 0.9 | 0.62 |
| IGFALS | 1.02 | 0.64 | 0.63 |
| AOAH | 0.93 | 0.76 | 0.82 |
| MTERF2 | 0.93 | 0.8 | 0.86 |
| PGAM2 | 1.37 | 1.04 | 0.76 |
| POLB | 1.37 | 0.96 | 0.7 |
| GBA3 | 1.15 | 0.99 | 0.86 |
| TNRC6B | 0.96 | 0.92 | 0.96 |
| CACFD1 | 1.03 | 0.89 | 0.86 |
| HCG9 | 0.91 | 0.69 | 0.76 |
| CPLX1 | 1.09 | 1.07 | 0.98 |
| XG | 0.93 | 0.78 | 0.84 |
| SNX13 | 0.79 | 0.89 | 1.12 |
| HSPB6 | 0.77 | 0.62 | 0.8 |
| SDHAF2 | 0.84 | 0.76 | 0.91 |
| KDM6B | 0.91 | 0.4 | 0.44 |
| NOM1 | 0.98 | 0.43 | 0.44 |
| TBC1D10B | 1.1 | 0.9 | 0.82 |
| LEMD3 | 1.45 | 1.07 | 0.74 |
| LILRA1 | 1.33 | 0.32 | 0.24 |
| SLC40A1 | 0.94 | 1.05 | 1.12 |

6 entries from above, ordered by “parental viability vs mock (fraction of mock)”, low to high:
| gene | CDH1-null / parental viability ratio | CDH1-null viability vs mock (fraction of mock) | parental viability vs mock (fraction of mock) |
| --- | --- | --- | --- |
| LILRA1 | 1.33 | 0.32 | 0.24 |
| KDM6B | 0.91 | 0.4 | 0.44 |
| NOM1 | 0.98 | 0.43 | 0.44 |
| LEMD3 | 1.45 | 1.07 | 0.74 |
| TBC1D10B | 1.1 | 0.9 | 0.82 |
| SLC40A1 | 0.94 | 1.05 | 1.12 |

More reagents follow:
| gene | CDH1-null / parental viability ratio | CDH1-null viability vs mock (fraction of mock) | parental viability vs mock (fraction of mock) |
| --- | --- | --- | --- |
| PDP1 | 1.39 | 0.99 | 0.71 |
| CCDC9 | 1.07 | 0.75 | 0.7 |
| H2AC14 | 1.22 | 1.12 | 0.92 |
| MCHR1 | 1.32 | 0.79 | 0.6 |
| PMM2 | 0.87 | 0.73 | 0.84 |
| AHCYL1 | 0.99 | 0.85 | 0.86 |
| PC | 1.1 | 0.89 | 0.81 |
| WDFY2 | 0.98 | 0.95 | 0.97 |
| WFDC6 | 0.87 | 0.4 | 0.46 |
| INSYN2A | 0.96 | 0.88 | 0.92 |
| CREB3L2 | 0.88 | 0.36 | 0.41 |
| PCDHGB1 | 1.3 | 1.14 | 0.88 |
| NUDT14 | 1.42 | 0.85 | 0.6 |
| SERPINB1 | 1.07 | 0.96 | 0.9 |
| TPRG1 | 0.98 | 0.96 | 0.98 |
| DQX1 | 1.37 | 0.78 | 0.57 |
| TLCD3A | 1.27 | 0.94 | 0.74 |
| MTHFD2 | 1.14 | 0.89 | 0.78 |
| MOB1B | 1.65 | 0.94 | 0.57 |
| OR1A1 | 1.49 | 0.82 | 0.55 |
| FBXW12 | 1.08 | 0.78 | 0.72 |
| OR9K2 | 1.64 | 0.72 | 0.44 |
| TENM3 | 0.92 | 0.9 | 0.98 |
| CDC26 | 1.21 | 0.34 | 0.28 |
| RAB11FIP4 | 1.19 | 0.75 | 0.63 |
| TCL1B | 1.36 | 0.99 | 0.73 |
| TMPRSS11B | 1.04 | 1.08 | 1.04 |
| FNBP1 | 1.04 | 0.96 | 0.92 |
| ST3GAL4 | 1.09 | 0.94 | 0.86 |
| GTF2B | 1.11 | 1.25 | 1.13 |
| MYO7A | 1.06 | 0.86 | 0.81 |
| EHMT2 | 0.92 | 0.86 | 0.93 |
| CACNG8 | 1.2 | 0.9 | 0.75 |
| SLC6A14 | 1.11 | 0.72 | 0.65 |
| MED13 | 1.05 | 0.82 | 0.78 |
| CHMP1A | 1.36 | 0.6 | 0.44 |
| SLC25A51 | 1.06 | 0.7 | 0.66 |
| NAV1 | 1.02 | 0.98 | 0.96 |
